In this assay the target is T1, SUBEX-C57Y-GFP (misfolded variant of the STRUBBELIG extracellular domain, C57Y, fused to GFP) (A. thaliana) (UniProt Q8RWZ1).
T1 sequence (chain, N-glycans at N70, N119, N243 (mainly oligomannosidic)): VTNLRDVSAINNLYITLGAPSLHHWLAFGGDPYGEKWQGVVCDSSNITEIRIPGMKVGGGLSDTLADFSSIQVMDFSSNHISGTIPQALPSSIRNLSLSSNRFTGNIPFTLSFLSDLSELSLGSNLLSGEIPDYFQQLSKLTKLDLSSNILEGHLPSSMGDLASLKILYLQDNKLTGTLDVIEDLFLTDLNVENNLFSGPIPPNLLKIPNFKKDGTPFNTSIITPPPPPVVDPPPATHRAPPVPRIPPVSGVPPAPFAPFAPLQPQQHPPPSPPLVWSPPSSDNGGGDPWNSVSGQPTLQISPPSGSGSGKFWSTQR
In words: co-IP; GFP-tagged SUBEX variants captured on GFP trap beads (1.5 h, 4°C) from RIPA extracts of co-infiltrated N. benthamiana leaves, with or without 20 μM kifunensine; co-purified proteins detected by immunoblot with anti-HA or anti-mRFP. A general note: In western blotting, separated proteins are transferred to a membrane and probed.

Consider two molecules from publication PMC4255730.

Where a chain is given by its changes, count along the chain named. These are yes or no findings as the source states them, for the method shown. Binding seen in cells or lysates may run through a third protein. Some entries that bind do so weakly or less than the wild type. Tags and fused reporters may be left off the sequences shown.

B1: OS9-mRFP (protein, UniProt Q8GWH3 24-282)
chain: DQIFPAHLVGTFSRNNREPKYKIEFLPEDSPFHPGDNLESMVMLDKHGNRFLCYLPKEEKATSGWTSSQQNISTVMMETQQLVKLKTPDELLQPLSEKCLFRQEGWWSYEFCHQKYVRQLHVEDENKIVQEFFLGTFDPEATAAFNQTVSDASTDASQRYHSHVYTNGTTCDLTGSPREVEVRFVCAETRAMVTSITELSTCKYALTVQCPTLCKHPLFQLEKPVSHTIHCNAIPVEEDATRNKEEQAVDESPKMIADS
In the case of B1, the binding result is “binds”.

B2: OS9R201A-mRFP (protein, UniProt Q8GWH3 24-282)
chain: B1 chain with R178A
As to B2, the binding entry is reported as “binds”.
